Experimental data: PubChem BioAssay AID540275 (National Center for Advancing Translational Sciences (NCATS), 2011)
Out of some 320,000 compounds screened, about 620 (0.19%) were called active. The shares of active, inactive and inconclusive entries below differ from those in the screen. Cut-off read from the data, not from the text of the source: active = activation above about 80%; inconclusive = between about 30% and that limit; inactive = weaker than that.

Chains of the proteins cited; added tags and fusions are not shown.
UniProt Q8NER1, whole entry, looked up: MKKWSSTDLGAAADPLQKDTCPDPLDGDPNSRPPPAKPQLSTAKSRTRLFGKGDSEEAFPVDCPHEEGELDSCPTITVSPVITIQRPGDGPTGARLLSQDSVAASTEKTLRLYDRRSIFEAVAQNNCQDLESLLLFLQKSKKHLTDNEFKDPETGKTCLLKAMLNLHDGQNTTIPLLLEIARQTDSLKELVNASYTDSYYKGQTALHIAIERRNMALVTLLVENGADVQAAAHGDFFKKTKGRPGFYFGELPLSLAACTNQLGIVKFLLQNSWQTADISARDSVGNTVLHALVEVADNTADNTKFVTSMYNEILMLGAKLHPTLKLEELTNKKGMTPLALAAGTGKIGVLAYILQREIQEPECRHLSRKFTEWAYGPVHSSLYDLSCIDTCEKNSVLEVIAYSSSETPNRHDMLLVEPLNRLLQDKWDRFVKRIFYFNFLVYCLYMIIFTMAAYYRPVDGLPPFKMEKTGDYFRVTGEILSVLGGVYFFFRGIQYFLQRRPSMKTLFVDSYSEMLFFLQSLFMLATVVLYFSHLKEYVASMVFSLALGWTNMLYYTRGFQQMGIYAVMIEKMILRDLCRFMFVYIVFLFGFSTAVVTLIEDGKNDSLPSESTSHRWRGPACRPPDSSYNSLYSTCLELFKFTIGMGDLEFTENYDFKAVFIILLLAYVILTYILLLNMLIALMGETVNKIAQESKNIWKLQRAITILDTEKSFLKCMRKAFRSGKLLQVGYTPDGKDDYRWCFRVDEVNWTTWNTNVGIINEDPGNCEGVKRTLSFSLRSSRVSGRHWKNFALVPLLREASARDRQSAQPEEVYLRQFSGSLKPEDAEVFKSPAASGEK

Target: Transient receptor potential cation channel subfamily V member 1 (Homo sapiens) (UniProt Q8NER1)
Assay: HTS Assay for Compounds that Act as Agonists of the Vanilloid Receptor 1; note: 0% is about no effect
Conditions: TRPV1-expressing cells, Fluo-8 calcium influx, agonist mode; at 8.33 µM, stronger effect = higher value
Outline: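 TRPV1-expressing cells were cultured overnight at 35.5C and loaded with Fluo-8 calcium dye for 40 to 90 min at room temperature. After a 10 s baseline, compound was added and calcium influx was read kinetically for 3 min (ex 480/em 520 nm).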

Structure (SMILES)	activation
Cc1cccc(NC(=O)C2Cc3ccccc3O/C2=N\O)c1 (stereo not drawn)	inactive: -1.95%
Cc1cccc(N2CCN(c3nnnn3-c3ccccc3)CC2C)c1 (stereo not drawn)	inconclusive: 47.3%
Cc1ccc(-c2nn(-c3ccccc3)cc2/C=N/n2c(-c3ccncc3)n[nH]c2=S)cc1	inactive: -0.0739%
CSc1nc2ccc(NC(=O)c3ccccn3)cc2s1	inconclusive: 60.7%
Cc1ncoc1C(=O)N1CCCC(C(=O)c2ccc3c4c(cccc24)CC3)C1 (stereo not drawn)	inconclusive: 53.3%
CCn1nc(NC(=O)c2ccncc2)c2cc3cc(C)ccc3nc21	inconclusive: 68.6%
O=C(CSc1ccccc1)NNC(=O)c1ccccc1O	inconclusive: 45.7%
CC1CCCN(C(=O)COc2ccc(Nc3ccccc3)cc2)C1 (stereo not drawn)	inactive: 8.1%
CCCNC(=O)c1cc2c3ccccc3n(C)c2s1	inconclusive: 34.1%
CN=c1sc2ccccc2n1CC(O)COCc1ccco1 (stereo not drawn)	inconclusive: 45.6%
CCCC(O)(c1ccc(CC)cc1)C(CN1CCOCC1)c1ccccc1 (stereo not drawn)	inconclusive: 54.2%
CCCCc1ccc(/C(C)=N/Nc2cc(N3CCOCC3)nc(C)n2)cc1	inactive: -2.28%
CC(C)c1ccc(NC2CCCN(C(=O)c3ccoc3)C2)cc1 (stereo not drawn)	inconclusive: 64.6%
Cc1cccc(OCC(=O)NCc2ccc(F)cc2)c1	inconclusive: 30.7%
O=C(N/N=C/c1cc([N+](=O)[O-])ccc1O)C1CCCCC1	inactive: 14.8%
CC(=O)Nc1ccc(NCc2cccs2)cc1	inactive: 3.02%
Cc1cc(OCc2cc(C(=O)NC3CCC3)no2)cc(C)c1Cl	inconclusive: 39.2%
Cc1cc(C)n(-c2nc(-n3nc(C)cc3C)c3c4c(sc3n2)COC(C)(C)C4)n1	inconclusive: 62.9%
S=C(NCc1cccs1)Nc1ccc(Br)cc1Cl	inconclusive: 68.3%
COc1ccc(NC2CCCN(C(=O)COc3ccc(Cl)cc3C)C2)cc1OC (stereo not drawn)	inconclusive: 38.4%

Structure (SMILES)	activation
CCc1ccc(NC(=O)c2cnn3ccccc23)cc1	inconclusive: 77%
CCOC(=O)COc1ccc2c(c1)C(=O)CC1(CCCCC1)O2	inconclusive: 35.2%
O=C(CCCN1CCC(NC(=O)c2ccccc2)CC1)c1ccc(Cl)cc1	inactive: -5.49%
CCCn1c(-c2cccnc2Cl)nc2cc(Cl)c(Cl)cc21	inconclusive: 54.8%
COc1ccc(CC(=O)NC2CCSc3ccccc32)cc1OC (stereo not drawn)	inconclusive: 73.3%
COc1ccccc1C(=O)NNC(=O)c1cccc(F)c1	inconclusive: 30.8%
O=C(Nc1ccccn1)NC1CCS(=O)(=O)C1 (stereo not drawn)	inactive: 2.41%
O=[N+]([O-])c1ccc(/C=N/Nc2nc(N3CCCCC3)nc(N3CCCCC3)n2)o1	inconclusive: 51.5%
CC(NC(=O)COc1ccc(-c2ccccc2)cc1)C1CCCO1 (stereo not drawn)	inconclusive: 41.9%
CCc1ccc(CN(C)Cc2nc(Cc3ccc(OC)c(OC)c3)no2)nc1	inconclusive: 44.7%
Cc1cccc(C(=O)NC(=S)NNC(=O)Cc2ccccc2)c1	inactive: 9.88%
COc1ccc(C2C(C(=O)c3cccs3)=C(O)C(=O)N2c2nncs2)cc1 (stereo not drawn)	inconclusive: 54.4%
CCOC(=O)c1cc(-c2ccc(C)cc2)n(CCC(=O)NCCCOC)c1C	inconclusive: 34.8%
COC(=O)c1cc(Nc2cc(C)c3c(O)cccc3n2)cc(C(=O)OC)c1	inactive: -4.85%
O=C1c2cccc3c(O)ccc(c23)C(=O)N1Cc1ccco1	inconclusive: 70.4%
Cc1ccccc1-c1nc(CS(=O)(=O)CC(=O)N2CCCCC2)c(C)o1	inactive: -5.27%
COC(=O)c1ccc(C(=O)OC)c(NC(=O)CSCc2ccc(Br)cc2)c1	inconclusive: 42.7%
N#Cc1nc(-c2ccccc2F)oc1NC1CCCCC1	inconclusive: 59.6%
Cc1cccc(C)c1-n1c(C)cc(/C=C2\C(=O)NN(c3ccccc3)C2=O)c1C	inconclusive: 34.7%
CCOC(=O)c1cnc(-n2nc(C)cc2C)nc1Nc1ccc(OC)cc1	inconclusive: 50.4%

Copied from the list.
activation with CCOC(=O)c1cc(-c2ccc(C)cc2)n(CCC(=O)NCCCOC)c1C reads inconclusive: 34.8%
activation with COc1ccc(CC(=O)NC2CCSc3ccccc32)cc1OC (stereo not drawn) reads inconclusive: 73.3%
activation with Cc1cccc(C)c1-n1c(C)cc(/C=C2\C(=O)NN(c3ccccc3)C2=O)c1C reads inconclusive: 34.7%

The listing continues:

Structure (SMILES)	activation
CSCCC(C(=O)N1CC2(C)CC1CC(C)(C)C2)N1C(=O)c2ccccc2C1=O (stereo not drawn)	inconclusive: 35.5%
O=C1c2ccccc2NC(c2cn[nH]c2-c2ccccc2)N1O (stereo not drawn)	inactive: 0.61%
Cc1ccc(-c2nc(N)s[n+]2-c2ccccc2)cc1	inactive: -2.08%
Cc1ccccc1C(=O)Nc1ccnn1C1CCN(C(=O)c2ccoc2)CC1	inactive: -0.392%
Cc1cccc(NC(=S)N(CCN2CCOCC2)Cc2cc3cc4c(cc3[nH]c2=O)OCCO4)c1	inconclusive: 74.2%
COc1cc(SC#N)ccc1N=Cc1c(C)[nH]n(-c2ccc(C)c(C)c2)c1=O	inactive: 4.03%
O=C(Nc1ccc(F)cc1F)NC1CCCCCCC1	inconclusive: 48.6%
O=C(N/N=C/c1ccc2c(c1)OCO2)c1ccc(COc2cccc3cccnc23)cc1	inconclusive: 31.1%
Cc1cccc(N(CC(=O)NC2CCCC2)C(=O)c2nsc(Cl)c2Cl)c1C	inconclusive: 42.2%
CSCC[C@H](NC(=O)[C@H](Cc1ccccc1)n1c(=O)[nH]c2ccccc2c1=O)C(=O)N1CCC(C(=O)O)CC1	inactive: -2.55%
COC(=O)c1ccc(NC(=S)N2CCN(Cc3ccccc3)CC2)cc1	inactive: 3.53%
CC(C)c1ccc(NC(=O)COC(=O)CCC(=O)c2cccs2)cc1	inconclusive: 43.3%
O=C(O)CC(NC(=O)/C(=C/c1ccccc1)NC(=O)c1ccccc1)c1ccccc1 (stereo not drawn)	inconclusive: 39.3%
Cc1nc(NC(C)c2ccccc2)c2c3c(sc2n1)CCC3 (stereo not drawn)	inconclusive: 38%
Cc1c(C(=O)OC(C)C)sc(NC(=O)C2CCCO2)c1C(=O)OC(C)C (stereo not drawn)	inconclusive: 33.2%
O=[N+]([O-])c1ccc2nc(NCCCO)nc(-c3ccccc3)c2c1	inconclusive: 35%
Cc1ncoc1C(=O)N1CCCC(C(=O)c2ccc(Oc3ccccc3)cc2)C1 (stereo not drawn)	inconclusive: 38.1%
COc1ccccc1CNS(=O)(=O)c1ccc(-n2cnnn2)c(C)c1	inactive: 0.884%
